No constants are given. Whether binding was seen depends on the method and setting. Binding calls can cover weak binding; strength is not graded here.

This test concerns the target c subunit of Thermus thermophilus V/A-ATPase, His3-tagged (Thermus thermophilus) (UniProt Q5SIT7). As to the kind of experiment: cryo-EM structure.

B1: a subunit of Thermus thermophilus V/A-ATPase (protein, UniProt Q5SIT6 1-652)
chain: MIAPMEKLVLAGPKGRAKELLQSLQQAGVVHLETLRPEALSAYQLSPEERAELRRWEAVSAGAEHTLSLLGLEAEPARPFPEGLEAAEKALSPIQAHAEGLTRQKQELEEELALAQAYLEPLERLAALAHGLDKSPFLRVIPFLLTEKELPLVEEALRKALEDRYLLAHEAYAGGVAALVVVHRKEVDQAKAALSRAGVAELRLPGALGELPLSEAARRLKERAEAAPRELSEVRQHLAKLARESASTLQSLWTRAQDEVARLKALEELASGRFGFALLGYVPVKAKPKVEEALARHKESVVYAFEPVDEHHEADRIPVVLDNPPWAKPFELLVSFLNTPKYGTFDPTPVVPVFFPFWFGMIVGDIGYALLFYLVGRWLSGYVKRNEPLVIDLFALKLKPQVIGKLVHILNWMVFWTVVWGVIYGEFFGTFLEHLGVFGTPEHPGLIPILIHRIDTAKTANLLILLSVAFGVVLVFFGLALRAYLGLKHRHMAHFWEGVGYLGGLVGVLALAASYLGNLQAGWLQGLMYLGFGVFLLAVLMSRIWLMIPEIFTQAGHILSHIRIYAVGAAGGILAGLLTDVGFALAERLGLLGVLLGLLVAGVLHLLILLLTTLGHMLQPIRLLWVEFFTKFGFYEENGRPYRPFKSVREAQ
In the case of B1, the binding result is reported as “binds”.

Values taken from article doi:10.1101/2020.02.13.946640 (bioRxiv, 2020).
